Measurements published in patent US20160257763A1.
These are yes or no findings as the source states them, for the method shown. Some results given as binding are weak or reduced against the parent protein; the word gives no strength.

How the values were obtained:
[1] = biological target: EGFR expressed on the surface of A549, BxPc3 and U87 cells (UniProt P00533); test: flow cytometry on A549, BxPc3 and U87 cells
[2] = biological target: Recombinant human EGFR-ED (human) (UniProt P00533); test: SPR (ProteOn XPR36); v1323 captured on immobilized anti-human IgG, recombinant human EGFR-ED injected as analyte

B1: v1323, monovalent anti-EGFR antibody (EG2) (Fc fusion, not shown: a dimerising Fc or GST; large carriers; small tags and cut ends)
VHH: QVKLEESGGGLVQAGDSLRVSCAASGRDFSDYVMGWFRQAPGKEREFVAAISRNGLTTRYADSVKGRFTISRDNDKNMVYLQMNSLKPEDTAVYYCAVNSAGTYVSPRSREYDYWGQGTQVTVSS
binding [1]: binds | binding [2]: binds
